Assay results published in the supplement of paper PMC8920030.
Further values from the same series stand in other lists. Where a SMILES comes first, the peptide text is derived from it. Bridges are numbered along the chain shown (N, C = ends). [ ]: non-standard residue; d: D form. The star is where a group is joined. Heptanoyl(5-Me) = CCC(C)CCCC(=O)*; Dab = NCC[C@H](N)C(=O)O

Key:
Conditions in all cases: growth mode: biofilm, 24 h; exposure time: 24 h
colistin [1] = compound: T1, CCC(C)CCCC(=O)N[C@@H](CCN)C(=O)N[C@H](C(=O)N[C@@H](CCN)C(=O)N[C@H]1CCNC(=O)[C@H]([C@@H](C)O)NC(=O)[C@H](CCN)NC(=O)[C@H](CCN)NC(=O)[C@H](CC(C)C)NC(=O)[C@@H](CC(C)C)NC(=O)[C@H](CCN)NC1=O)[C@@H](C)O [colistin]; experiment: minimum concentration eradicating biofilm below detection limit (MCK-E); higher = more biofilm tolerance
Protocol: (§1)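 Clinical P. aeruginosa isolates were grown as static biofilms for 24 h at 37 °C in LB in half-area 96-well plates, then exposed for 24 h to colistin at 1, 4, 16, 64, 256 or […]. Surviving CFU were counted by spotting serial dilutions. MCK is the lowest tested concentration giving the stated log reduction in CFU versus an untreated control; '>1024' means the reduction was not reached at the top dose, and 1 is the lowest dose tested (≤1).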

tobramycin [2] = compound: T2, NC[C@H]1O[C@H](O[C@H]2[C@H](O)[C@@H](O[C@H]3O[C@H](CO)[C@@H](O)[C@H](N)[C@H]3O)[C@H](N)C[C@@H]2N)[C@H](N)C[C@@H]1O [tobramycin]; experiment: minimum concentration of killing, 2-log CFU reduction of biofilm (MCK99); higher = more biofilm tolerance
Protocol: as §1, with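 “tobramycin” for “colistin”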

tobramycin [3] = compound: T2, tobramycin; experiment: minimum concentration of killing, 4-log CFU reduction of biofilm (MCK99.99); higher = more biofilm tolerance
Protocol: as §1, with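 “tobramycin” for “colistin”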

colistin [4] = compound: T1, colistin; experiment: as above
Protocol: as §1

tobramycin [5] = compound: T2, tobramycin; experiment: minimum concentration eradicating biofilm below detection limit (MCK-E); higher = more biofilm tolerance
Protocol: as §1, with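 “tobramycin” for “colistin”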

tobramycin [6] = compound: T2, tobramycin; experiment: minimum concentration of killing, 1-log CFU reduction of biofilm (MCK90); higher = more biofilm tolerance
Protocol: as §1, with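 “tobramycin” for “colistin”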

colistin [7] = compound: T1, colistin; experiment: minimum concentration of killing, 2-log CFU reduction of biofilm (MCK99); higher = more biofilm tolerance
Protocol: as §1

colistin [8] = compound: T1, colistin; experiment: minimum concentration of killing, 1-log CFU reduction of biofilm (MCK90); higher = more biofilm tolerance
Protocol: as §1

Row | Test System | minimum concentration eradicating biofilm below detection limit (colistin [1]) | minimum concentration of killing (tobramycin [2]) | minimum concentration of killing (tobramycin [3]) | minimum concentration of killing (colistin [4]) | minimum concentration eradicating biofilm below detection limit (tobramycin [5]) | minimum concentration of killing (tobramycin [6]) | minimum concentration of killing (colistin [7]) | minimum concentration of killing (colistin [8])
1 | Pseudomonas aeruginosa clinical isolate CF577_Iso7 | 64 µg/mL | 1020 µg/mL | > 1020 µg/mL | 64 µg/mL | > 1020 µg/mL | 1020 µg/mL | 64 µg/mL | ≤ 1 µg/mL
2 | Pseudomonas aeruginosa clinical isolate CF590_Iso5 | 1020 µg/mL | 16 µg/mL | > 1020 µg/mL | 1020 µg/mL | > 1020 µg/mL | 4 µg/mL | 64 µg/mL | 16 µg/mL
3 | Pseudomonas aeruginosa clinical isolate CF592_Iso2 | 256 µg/mL | 4 µg/mL | 64 µg/mL | 256 µg/mL | 256 µg/mL | 4 µg/mL | 256 µg/mL | 64 µg/mL
4 | Pseudomonas aeruginosa clinical isolate CF609_Iso3 | 64 µg/mL | 256 µg/mL | 256 µg/mL | 64 µg/mL | 256 µg/mL | 64 µg/mL | 64 µg/mL | 16 µg/mL
5 | Pseudomonas aeruginosa clinical isolate CF609_Iso4 | 64 µg/mL | 1020 µg/mL | > 1020 µg/mL | 64 µg/mL | > 1020 µg/mL | 256 µg/mL | 16 µg/mL | 16 µg/mL
6 | Pseudomonas aeruginosa clinical isolate CH2500 | 256 µg/mL | 64 µg/mL | 256 µg/mL | 256 µg/mL | 1020 µg/mL | 4 µg/mL | 256 µg/mL | 64 µg/mL
7 | Pseudomonas aeruginosa clinical isolate CH2502 | 256 µg/mL | 16 µg/mL | 64 µg/mL | 256 µg/mL | 256 µg/mL | 4 µg/mL | 64 µg/mL | 16 µg/mL
8 | Pseudomonas aeruginosa clinical isolate CH2678 | 256 µg/mL | > 1020 µg/mL | > 1020 µg/mL | 256 µg/mL | > 1020 µg/mL | > 1020 µg/mL | 256 µg/mL | 256 µg/mL
9 | Pseudomonas aeruginosa clinical isolate CH2682 | 1020 µg/mL | 64 µg/mL | 1020 µg/mL | 1020 µg/mL | 1020 µg/mL | 16 µg/mL | 256 µg/mL | 64 µg/mL
10 | Pseudomonas aeruginosa clinical isolate CH2685 | 256 µg/mL | 16 µg/mL | 64 µg/mL | 256 µg/mL | 256 µg/mL | 4 µg/mL | 256 µg/mL | 256 µg/mL
11 | Pseudomonas aeruginosa clinical isolate CH2687 | 256 µg/mL | 16 µg/mL | – | 256 µg/mL | 1020 µg/mL | 4 µg/mL | 256 µg/mL | 256 µg/mL
12 | Pseudomonas aeruginosa clinical isolate CH2690 | 1020 µg/mL | 16 µg/mL | 256 µg/mL | 256 µg/mL | 256 µg/mL | 16 µg/mL | 256 µg/mL | 256 µg/mL
13 | Pseudomonas aeruginosa clinical isolate CH2698 | 256 µg/mL | 256 µg/mL | 1020 µg/mL | 256 µg/mL | > 1020 µg/mL | 256 µg/mL | 256 µg/mL | 16 µg/mL
14 | Pseudomonas aeruginosa clinical isolate CH2706 | 256 µg/mL | 1020 µg/mL | > 1020 µg/mL | 256 µg/mL | > 1020 µg/mL | 64 µg/mL | 256 µg/mL | 64 µg/mL
15 | Pseudomonas aeruginosa clinical isolate CH2707 | 256 µg/mL | > 1020 µg/mL | > 1020 µg/mL | 256 µg/mL | > 1020 µg/mL | > 1020 µg/mL | 256 µg/mL | 64 µg/mL
16 | Pseudomonas aeruginosa clinical isolate CH2713 | 256 µg/mL | ≤ 1 µg/mL | 16 µg/mL | 256 µg/mL | 256 µg/mL | ≤ 1 µg/mL | 256 µg/mL | 256 µg/mL
17 | Pseudomonas aeruginosa clinical isolate CH2718 | 256 µg/mL | ≤ 1 µg/mL | 16 µg/mL | 256 µg/mL | 64 µg/mL | ≤ 1 µg/mL | 64 µg/mL | 64 µg/mL
18 | Pseudomonas aeruginosa clinical isolate CH2724 | 256 µg/mL | 256 µg/mL | 1020 µg/mL | 256 µg/mL | 1020 µg/mL | ≤ 1 µg/mL | 64 µg/mL | 64 µg/mL
19 | Pseudomonas aeruginosa clinical isolate CH2730 | 256 µg/mL | 4 µg/mL | 16 µg/mL | 256 µg/mL | 64 µg/mL | 4 µg/mL | 256 µg/mL | 256 µg/mL
20 | Pseudomonas aeruginosa clinical isolate CH3462 | – | 256 µg/mL | > 1020 µg/mL | – | > 1020 µg/mL | 4 µg/mL | – | –
21 | Pseudomonas aeruginosa clinical isolate CH4681 | – | 256 µg/mL | 256 µg/mL | – | 256 µg/mL | 256 µg/mL | – | –
22 | Pseudomonas aeruginosa clinical isolate CH5291 | – | 256 µg/mL | 1020 µg/mL | 256 µg/mL | > 1020 µg/mL | 64 µg/mL | 256 µg/mL | 256 µg/mL
23 | Pseudomonas aeruginosa clinical isolate CH5353 | – | 4 µg/mL | 256 µg/mL | 256 µg/mL | 1020 µg/mL | ≤ 1 µg/mL | 256 µg/mL | 256 µg/mL

Row | Test System | minimum concentration eradicating biofilm below detection limit (colistin [1]) | minimum concentration of killing (tobramycin [2]) | minimum concentration of killing (tobramycin [3]) | minimum concentration of killing (colistin [4]) | minimum concentration eradicating biofilm below detection limit (tobramycin [5]) | minimum concentration of killing (tobramycin [6]) | minimum concentration of killing (colistin [7]) | minimum concentration of killing (colistin [8])
24 | Pseudomonas aeruginosa clinical isolate CH5363 | 256 µg/mL | – | – | 256 µg/mL | 256 µg/mL | – | 256 µg/mL | 256 µg/mL
25 | Pseudomonas aeruginosa clinical isolate CH5531 | 256 µg/mL | – | – | 256 µg/mL | – | – | 256 µg/mL | 256 µg/mL
26 | Pseudomonas aeruginosa clinical isolate CH5548 | 256 µg/mL | – | – | 256 µg/mL | – | – | 256 µg/mL | 256 µg/mL
27 | Pseudomonas aeruginosa clinical isolate F2026 | – | – | – | – | – | 256 µg/mL | – | –
28 | Pseudomonas aeruginosa clinical isolate F2029 | – | 256 µg/mL | – | – | – | 4 µg/mL | – | –
29 | Pseudomonas aeruginosa clinical isolate F2030 | – | 1020 µg/mL | – | – | > 1020 µg/mL | 256 µg/mL | – | –
30 | Pseudomonas aeruginosa clinical isolate F2034 | – | 256 µg/mL | > 1020 µg/mL | – | > 1020 µg/mL | 4 µg/mL | – | –
31 | Pseudomonas aeruginosa clinical isolate F2035 | – | 64 µg/mL | 1020 µg/mL | – | 1020 µg/mL | 16 µg/mL | – | –
32 | Pseudomonas aeruginosa clinical isolate F2044 | – | 4 µg/mL | 16 µg/mL | 256 µg/mL | 256 µg/mL | ≤ 1 µg/mL | 256 µg/mL | 64 µg/mL
33 | Pseudomonas aeruginosa clinical isolate F2045 | – | > 1020 µg/mL | > 1020 µg/mL | > 1020 µg/mL | > 1020 µg/mL | > 1020 µg/mL | > 1020 µg/mL | 256 µg/mL
34 | Pseudomonas aeruginosa clinical isolate F2055 | – | > 1020 µg/mL | > 1020 µg/mL | – | > 1020 µg/mL | 1020 µg/mL | – | –
35 | Pseudomonas aeruginosa clinical isolate F2059 | – | > 1020 µg/mL | > 1020 µg/mL | 256 µg/mL | > 1020 µg/mL | 1020 µg/mL | 256 µg/mL | 256 µg/mL
36 | Pseudomonas aeruginosa clinical isolate F2065 | – | 64 µg/mL | 256 µg/mL | 256 µg/mL | > 1020 µg/mL | 4 µg/mL | 256 µg/mL | 256 µg/mL
37 | Pseudomonas aeruginosa clinical isolate F2075 | 256 µg/mL | 64 µg/mL | 256 µg/mL | 256 µg/mL | – | 16 µg/mL | 256 µg/mL | 64 µg/mL
38 | Pseudomonas aeruginosa clinical isolate F2081 | 1020 µg/mL | 64 µg/mL | – | 1020 µg/mL | > 1020 µg/mL | 4 µg/mL | 256 µg/mL | 256 µg/mL
39 | Pseudomonas aeruginosa clinical isolate M70639645 | – | 256 µg/mL | 1020 µg/mL | 256 µg/mL | 1020 µg/mL | 256 µg/mL | 256 µg/mL | 64 µg/mL
40 | Pseudomonas aeruginosa clinical isolate MD1496 | 256 µg/mL | – | – | 256 µg/mL | 256 µg/mL | 64 µg/mL | 256 µg/mL | 64 µg/mL
41 | Pseudomonas aeruginosa clinical isolate MD1498 | 256 µg/mL | – | – | 256 µg/mL | – | – | 256 µg/mL | 64 µg/mL
42 | Pseudomonas aeruginosa clinical isolate MD9723 | 256 µg/mL | 4 µg/mL | – | 256 µg/mL | 256 µg/mL | ≤ 1 µg/mL | 64 µg/mL | 64 µg/mL
43 | Pseudomonas aeruginosa clinical isolate MHH15103 | 256 µg/mL | 4 µg/mL | – | 256 µg/mL | – | ≤ 1 µg/mL | 256 µg/mL | ≤ 1 µg/mL
44 | Pseudomonas aeruginosa clinical isolate MHH16951 | 64 µg/mL | – | – | 64 µg/mL | > 1020 µg/mL | – | 16 µg/mL | 16 µg/mL
45 | Pseudomonas aeruginosa clinical isolate PSAE1439 | – | 64 µg/mL | 1020 µg/mL | – | 1020 µg/mL | 4 µg/mL | – | –
